Test results as given in PubChem BioAssay AID504465 (National Center for Advancing Translational Sciences (NCATS), 2011).
Hit rate of the full screen: of about 2,100 compounds, about 210 (10%) were called active. Inconclusive means that the source gave no clear call. Such entries were picked first, then a sample of the others. The call rests on the fitted dose curve; in most records, active means well fitted inhibition curve with a large enough effect; inconclusive means small, poorly fitted or top-dose-only effect, or effect the other way; inactive means no such curve, though single readings can be large or run the other way. Where the call is inconclusive, the potency comes from a doubtful curve fit.

Test: IN Cell qHTS Assay for Inhibitors of the mTORC1 Signaling Pathway in MEF (Tsc2-/-, p53-/-) Cells: Sytravon; further: nearly all actives have a fitted effect of over 60% in size
Settings: phospho-rpS6 immunofluorescence, 24 h; activity, negative = inhibition: at 38.3 µM (top of the series)
Summary of the method: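 Tsc2-/-, p53-/- MEFs (empty-vector) treated with compound 24 h at 37 degree Celsius, then fixed and stained for phospho-rpS6 Ser235/236 (Alexa-488) plus Hoechst. Reported as % positive cells, thresholds set against 7.5 nM rapamycin and DMSO wells.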
Potency means the concentration at half of the fitted maximal effect.

Question: Which “activity, negative = inhibition” value does the source give for `Cc1ccccc1NC(=O)CSc1nc2ccc(NC(=O)c3ccccc3)cc2s1` here?
Answer: The value was inactive: -6.34%.

Question: With `Cc1ccccc1CN1C(=O)C(O)(CC(=O)c2ccccc2)c2cc(Cl)ccc21` (centres undefined) as the molecule, how does the “activity, negative = inhibition” value read?
Answer: Its value is inactive: -20.8%.

Question: For `Cc1ccc(N(CC(O)Cn2c3ccccc3c3ccccc32)S(=O)(=O)c2ccc(F)cc2)cc1` (centres undefined), which Potency is on record?
Answer: The Potency was inconclusive: 10.4 µM [falling, partial curve, poor fit].

Question: For `CCCN1CCN(CCCNC(=O)c2cc3c(s2)-c2ccccc2OC3)CC1`, which Potency is on record?
Answer: Its Potency is inconclusive: 23.3 µM [falling, single point].

Question: Which Potency does the source give for `Cc1ccc(-n2nc(C)c(C(=O)NCCCN3CCN(c4cccc(Cl)c4)CC3)c2-n2cccc2)cc1` here?
Answer: Its Potency is inconclusive: 13.1 µM [falling, partial curve, poor fit].

Question: Which Potency does the source give for `Cn1nnnc1SCCCNCc1ccccc1OCc1ccc(F)cc1` here?
Answer: Its Potency is inconclusive: 0.261 µM [falling, full curve, poor fit].

Question: For `Cc1ccc(C(=O)Nc2ccc3oc(-c4cc(Br)ccc4Cl)nc3c2)cc1`, which Potency is on record?
Answer: Its Potency is inconclusive: 18.5 µM [falling, single point].

Question: With `COc1ccccc1NC(=O)c1c(NC(=O)COc2ccccc2)sc2c1CCCCC2` as the molecule, how does the Potency read?
Answer: Its Potency is inconclusive: 18.5 µM [falling, single point].

Question: With `CCn1c(=N)n(CCOc2ccc(Br)cc2)c2ccccc21` as the molecule, how does the Potency read?
Answer: Its Potency is active: 6.56 µM.

Question: With `Cc1ccc(-n2c(=O)[nH]c3cc(C(=O)NCc4ccccc4)ccc3c2=O)cc1` as the molecule, how does the Potency read?
Answer: The Potency was inconclusive: 5.85 µM [falling, partial curve, poor fit].

Question: With `O=C(Nc1cccc(Cl)c1)c1ccc2c(c1)CCN2S(=O)(=O)c1ccccc1` as the molecule, how does the Potency read?
Answer: The Potency was inconclusive: 18.5 µM [falling, partial curve, poor fit].

Question: For `Cc1ccc(CCNC(=O)c2c3c(nc4ccccc24)C(=O)N(C2CCCCC2)C3)cc1`, which “activity, negative = inhibition” value is on record?
Answer: Its value is inactive: -5.87%.

Question: Which Potency does the source give for `COc1ccc(C2=C(N3CCN(c4cccc(C)c4)C(C)C3)c3ccccc3C2=O)cc1` (centres undefined) here?
Answer: Its Potency is inconclusive: 11.7 µM [activator, partial curve, poor fit].

Question: Which Potency does the source give for `COc1ccc(CNCCC(c2ccc3c(c2)OCO3)c2ccccc2OC)cc1` (centres undefined) here?
Answer: Its Potency is inconclusive: 14.7 µM [falling, partial curve, poor fit].

Question: Which Potency does the source give for `COc1ccc(NC(=O)c2ccc3c(=O)n4nc(Nc5cc(C)ccc5C)sc4nc3c2)cc1` here?
Answer: The Potency was inconclusive: 3.29 µM [falling, single point].

Question: Which Potency does the source give for `CCOc1ccccc1Nc1nc(-c2cccc(Cl)c2)c2c(n1)-c1ccccc1OC2` here?
Answer: Its Potency is inconclusive: 2.07 µM [falling, full curve].

Question: For `CCc1ccc(Oc2nc3c(C)cccn3c(=O)c2/C=C(\C#N)c2nc3ccccc3[nH]2)cc1`, which “activity, negative = inhibition” value is on record?
Answer: The value was inactive: -94.3%.

Question: For `COc1cccc(-c2ccc3c(N)c(C(=O)Nc4ccc(Cl)cc4F)sc3n2)c1`, which Potency is on record?
Answer: The Potency was inconclusive: 5.21 µM [falling, partial curve, poor fit].

Question: With `CCOc1ccc(C2c3[nH]c4ccccc4c3CCN2C(=O)CCC2CCCC2)cc1` (centres undefined) as the molecule, how does the Potency read?
Answer: Its Potency is inconclusive: 23.3 µM [falling, single point].

Question: For `CCOC(=O)N1CCN(CCC(=O)Nc2cc(C)ccc2C)CC1`, which Potency is on record?
Answer: Its Potency is inconclusive: 3.69 µM [falling, full curve, poor fit].

Question: Which “activity, negative = inhibition” value does the source give for `CCn1cc2nc(SCC(=O)Nc3cccc(Cl)c3C)n(Cc3ccc(Cl)cc3)c(=O)c2n1` here?
Answer: The value was inactive: -2.07%.

Question: For `Cc1ccc(S(=O)(=O)c2nc(-c3ccco3)oc2SCC(=O)c2ccc(Cl)cc2)cc1`, which Potency is on record?
Answer: Its Potency is inconclusive: 16.5 µM [falling, single point].

Question: For `CC(C)CN(CC(C)C)c1nnc(NC(=O)Nc2cccc(C(F)(F)F)c2)s1`, which “activity, negative = inhibition” value is on record?
Answer: The value was inactive: 2.09%.

Question: For `CC1=C(C(=O)Nc2ccc(C)cc2C)C(c2cc(Br)ccc2F)n2ncc(C(=O)Nc3ccc(C)cc3)c2N1` (centres undefined), which Potency is on record?
Answer: Its Potency is inconclusive: 2.93 µM [falling, full curve].

Question: For `Cc1ccc2c(c1)C(=O)C(=O)N2Cc1ccc(OC(C)C)cc1`, which Potency is on record?
Answer: Its Potency is inconclusive: 0.464 µM [falling, full curve, poor fit].

Question: Which “activity, negative = inhibition” value does the source give for `COc1cc(CNc2ccc3c(c2)ncn3C(C)C)cc(OC)c1OC` here?
Answer: Its value is inactive: -19.3%.

Question: With `COc1ccc(NC(=O)CSc2c3c(nc4ccccc24)CCC3)c(OC)c1` as the molecule, how does the Potency read?
Answer: Its Potency is inconclusive: 5.21 µM [activator, single point].

Question: For `CCC1CCCCN1CCCNC(=O)c1ccc2c(c1)N(Cc1ccc(Cl)cc1)C(=O)c1ccccc1S2(=O)=O` (centres undefined), which Potency is on record?
Answer: The Potency was inconclusive: 26.1 µM [falling, single point].

Question: Which “activity, negative = inhibition” value does the source give for `Cc1ccc(C)c(Cn2c(=O)n(CCCCCC(=O)NCc3ccc4c(c3)OCO4)c(=O)c3sccc32)c1` here?
Answer: The value was inactive: -7%.

Question: Which Potency does the source give for `Cc1ccc(Cl)cc1N1CCN(CCCNC(=O)c2nnc(Cc3cccc(Cl)c3)o2)CC1` here?
Answer: Its Potency is inconclusive: 3.29 µM [falling, partial curve, poor fit].

Question: With `CCOC(=O)CSc1nc(-c2ccccc2)cc(C(F)(F)F)c1C#N` as the molecule, how does the Potency read?
Answer: The Potency was active: 9.27 µM.

Question: With `CCC1CN(C(=O)N2CCC(C(=O)NCCN(CC)CC)CC2)c2ccccc2O1` (centres undefined) as the molecule, how does the “activity, negative = inhibition” value read?
Answer: Its value is inactive: -0.799%.

Question: Which Potency does the source give for `CCCN1C(=O)C(O)(CC(=O)c2ccc(CC)cc2)c2ccccc21` (centres undefined) here?
Answer: Its Potency is inconclusive: 2.93 µM [falling, full curve, poor fit].

Question: With `CCC1CCc2nc3sc(C(=O)Nc4ccc(F)c(Cl)c4)c(N)c3cc2C1` (centres undefined) as the molecule, how does the Potency read?
Answer: Its Potency is inconclusive: 0.0927 µM [falling, full curve, poor fit].

Question: With `CCOc1ccc(-n2c(-c3ccccc3)c(C)n3c4c(=O)n(C)c(=O)n(C)c4nc23)cc1` as the molecule, how does the “activity, negative = inhibition” value read?
Answer: Its value is inactive: -5.32%.

Question: With `CCS(=O)(=O)c1ncc(Cl)c(C(=O)N2CCN(c3cccc(Cl)c3)CC2)n1` as the molecule, how does the Potency read?
Answer: Its Potency is active: 2.61 µM.

Question: With `Cc1ccc(CNS(=O)(=O)c2cc(C(=O)Nc3cccc(C(F)(F)F)c3)ccc2F)cc1` as the molecule, how does the “activity, negative = inhibition” value read?
Answer: Its value is inactive: -5.56%.

Question: For `Cc1noc(/C=C/N(C)C)c1S(=O)(=O)N1CCCC(C(=O)Nc2ccc(F)cc2F)C1` (centres undefined), which “activity, negative = inhibition” value is on record?
Answer: Its value is inactive: 10.5%.

Question: For `CCOC(=O)c1c(-c2ccccc2)csc1NC(=O)c1nc(S(=O)(=O)CC)ncc1Cl`, which Potency is on record?
Answer: Its Potency is inconclusive: 20.7 µM [falling, single point].

Question: Which Potency does the source give for `CCc1nnc(NC(=O)c2nc(S(C)(=O)=O)ncc2Cl)s1` here?
Answer: The Potency was inconclusive: 16.5 µM [falling, single point].

Question: With `CC(C)Oc1ccc(CNC(=O)c2ccc3nc(SCc4ccc(F)cc4)n(C)c3c2)cc1` as the molecule, how does the Potency read?
Answer: The Potency was inconclusive: 3.69 µM [falling, partial curve].

Question: For `O=C(Nc1ccc2oc(-c3cccnc3)nc2c1)c1ccc(-c2cccc(OC(F)(F)F)c2)o1`, which Potency is on record?
Answer: The Potency was inconclusive: 23.3 µM [falling, partial curve, poor fit].

Question: For `COc1cccc(N2CCN(C(=O)c3ccc(CS(=O)c4cccc(Cl)c4)o3)CC2)c1` (centres undefined), which Potency is on record?
Answer: Its Potency is inconclusive: 7.36 µM [falling, partial curve, poor fit].

Question: Which Potency does the source give for `COc1ccc(C2=NN(C(C)=O)C(c3cn(-c4ccccc4)nc3-c3cccs3)C2)cc1` (centres undefined) here?
Answer: Its Potency is inconclusive: 1.47 µM [falling, partial curve, poor fit].

Question: Which Potency does the source give for `O=C(Nc1ccc2oc(-c3ccc4ccccc4c3)nc2c1)c1cc(Br)ccc1Cl` here?
Answer: Its Potency is active: 16.5 µM.

Question: With `O=C(NCCc1ccccc1)C(=O)NCC(c1cccnc1)N1CCN(c2ccc(F)cc2)CC1` (centres undefined) as the molecule, how does the Potency read?
Answer: Its Potency is inconclusive: 26.1 µM [falling, single point].

Question: Which Potency does the source give for `COc1ccccc1-c1cc(C(F)(F)F)nc(S(=O)(=O)CCCC(=O)Nc2cc(Br)ccc2O)n1` here?
Answer: Its Potency is inconclusive: 0.117 µM [falling, full curve, poor fit].

Question: Which Potency does the source give for `Cc1cc(N2CCN(C)CC2)nc2ccc(NC(=O)c3ccc(C(C)(C)C)cc3)cc12` here?
Answer: The Potency was active: 1.85 µM.

Question: For `COc1ccc(C(=O)Nc2ccc3nc4c(c(Nc5ccc(OC)c(OC)c5)c3c2)CCCC4)c(OC)c1`, which Potency is on record?
Answer: Its Potency is inconclusive: 26.1 µM [falling, single point].

Question: With `CC(C)CCOc1ccc(C2N=C(N)Nc3nc4ccccc4n32)cc1` (centres undefined) as the molecule, how does the Potency read?
Answer: Its Potency is inconclusive: 26.1 µM [falling, single point].

Question: For `Cc1nn(C(C)C(=O)NC2CCC(C)CC2)c(=O)c2c1sc1ccccc12` (centres undefined), which Potency is on record?
Answer: The Potency was active: 5.21 µM.

Question: For `Cc1ccc(NC(=O)CN2C(=O)CCc3ccccc32)cc1C`, which Potency is on record?
Answer: Its Potency is inconclusive: 26.1 µM [falling, single point].

Question: With `CCCCN(CC)C(=O)Nc1ccc2c(c1)N(C)C(=O)c1ccccc1S2` as the molecule, how does the Potency read?
Answer: The Potency was inconclusive: 14.7 µM [falling, partial curve].

Question: For `CC1CCCCN1CC(=O)N1CCCc2c1c(=O)oc1ccc(OCc3ccccc3)cc21` (centres undefined), which Potency is on record?
Answer: Its Potency is active: 13.1 µM.

Question: Which “activity, negative = inhibition” value does the source give for `COc1cc2c(cc1OC)n(CC(=O)c1ccc(F)cc1)c(=O)n1nc(CCn3nc(C)cc3C)nc21` here?
Answer: Its value is inactive: -8.82%.

Question: For `O=C(Nc1ccc(F)cc1F)c1noc2c1CCc1ccccc1-2`, which “activity, negative = inhibition” value is on record?
Answer: Its value is inactive: 19.6%.

Question: Which Potency does the source give for `CN(C)c1cccc(C(=O)Nc2nc3ccc(S(=O)(=O)N4CCCC4)cc3s2)c1` here?
Answer: The Potency was inconclusive: 1.47 µM [falling, full curve].

Question: Which Potency does the source give for `O=C(CCn1c(=O)c2sccc2n(CC(=O)Nc2ccccc2)c1=O)NCc1ccccc1Cl` here?
Answer: The Potency was inconclusive: 0.0037 µM [activator, full curve, poor fit].

Question: For `Cc1cc(C)cc(NC(=O)C2CCCN2S(=O)(=O)c2ccc3nc(-c4ccccc4)[nH]c3c2)c1` (centres undefined), which “activity, negative = inhibition” value is on record?
Answer: The value was inactive: -4.65%.

Question: Which “activity, negative = inhibition” value does the source give for `CCOc1cc(CNC(=O)c2ccc(C)c(NC(=O)c3nsc4ccccc34)c2)ccc1OC` here?
Answer: Its value is inactive: -1.04%.

Question: With `CCN(CC)S(=O)(=O)c1ccc(NC(=O)CCc2c(C)nc3cc(-c4ccc(Cl)cc4)nn3c2C)cc1` as the molecule, how does the Potency read?
Answer: The Potency was inconclusive: 9.27 µM [falling, partial curve, poor fit].

Question: For `CCOC(=O)c1c(C)[nH]c(CCC(=O)NCCCN2CCN(c3cc(C)ccc3C)CC2)c1C`, which Potency is on record?
Answer: The Potency was active: 11.7 µM.

Question: For `CC(C)CCNC(=O)CSc1c2c(nc3ccc(Cl)cc13)CCCC2`, which Potency is on record?
Answer: Its Potency is inconclusive: 26.1 µM [falling, single point].

Question: For `O=C(CCNS(=O)(=O)c1ccc2c(c1)CCN2C(=O)C1CC1)N1CCN(c2ccc(F)cc2)CC1`, which Potency is on record?
Answer: The Potency was inconclusive: 23.3 µM [falling, single point].
